Measurements: doi:10.1101/2025.10.17.683101
No constants are given. Whether binding was seen depends on the method and setting. Binding seen in cells or lysates may run through a third protein. Some entries that bind do so weakly or less than the wild type. Each block holds one molecule with its values, some of them ahead of it.

The chains behind the UniProt entries cited, without tags or fusion partners.
UniProt Q60867: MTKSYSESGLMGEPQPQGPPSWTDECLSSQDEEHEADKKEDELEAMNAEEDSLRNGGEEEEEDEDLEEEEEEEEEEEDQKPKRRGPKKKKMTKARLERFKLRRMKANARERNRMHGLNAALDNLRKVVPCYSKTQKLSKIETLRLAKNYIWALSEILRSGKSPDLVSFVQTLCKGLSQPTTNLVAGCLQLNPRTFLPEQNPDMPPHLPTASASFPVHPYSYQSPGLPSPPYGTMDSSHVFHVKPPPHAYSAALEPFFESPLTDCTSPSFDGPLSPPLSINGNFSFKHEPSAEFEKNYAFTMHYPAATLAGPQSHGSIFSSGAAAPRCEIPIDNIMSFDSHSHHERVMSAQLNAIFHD
UniProt O09106: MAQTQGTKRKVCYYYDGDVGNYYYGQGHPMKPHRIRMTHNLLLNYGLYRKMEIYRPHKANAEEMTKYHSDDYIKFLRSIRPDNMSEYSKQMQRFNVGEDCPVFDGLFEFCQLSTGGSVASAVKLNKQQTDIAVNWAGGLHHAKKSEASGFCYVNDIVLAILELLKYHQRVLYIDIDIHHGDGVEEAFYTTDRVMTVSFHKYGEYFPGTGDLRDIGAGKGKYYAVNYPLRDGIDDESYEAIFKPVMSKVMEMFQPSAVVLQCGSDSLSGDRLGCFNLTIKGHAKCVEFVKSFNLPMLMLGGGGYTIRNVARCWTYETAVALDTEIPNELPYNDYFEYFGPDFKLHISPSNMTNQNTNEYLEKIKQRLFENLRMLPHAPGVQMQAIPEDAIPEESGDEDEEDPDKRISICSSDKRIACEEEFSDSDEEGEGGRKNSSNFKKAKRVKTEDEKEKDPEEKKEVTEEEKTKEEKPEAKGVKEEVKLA

Molecular target: NeuroD1 (mouse (endogenous in P7 cerebellum)) (UniProt Q60867)
Experiment: co-IP; anti-NeuroD1 antibody on Dynabeads Protein A incubated with RIPA lysate of P7 wild-type mouse cerebellum, 4°C, 2 hours; five washes (10 mM Tris-HCl, 150 mM NaCl, 0.5 mM EDTA, 0.05% NP40); immunoblots for Sin3A, Hdac1 and NeuroD1; nonspecific rabbit IgG as control

binding: binds
Molecule: Hdac1 (from UniProt O09106 1-482)

binding: binds
B1: Sin3A (protein, UniProt Q60520 1-1274)
chain: MKRRLDDQESPVYAAQQRRIPGSTEAFSHQHRVLAPAPPVYEAVSETMQSATGIQYSVAPNYQVSAVPQSSGSHGPAIAAVHSSHHHPTAVQPHGGQVVQSHAHPAPPVAPVQGQQQFQRLKVEDALSYLDQVKLQFGSQPQVYNDFLDIMKEFKSQSIDTPGVISRVSQLFKGHPDLIMGFNTFLPPGYKIEVQTNDMVNVTTPGQVHQIPTHGIQPQPQPPPQHPSQPSSQSAPTPAQPAPQPTAAKVSKPSQLQAHTPASQQTPPLPPYASPRSPPVQPHTPVTISLGTAPSLQNNQPVEFNHAINYVNKIKNRFQGQPDIYKAFLEILHTYQKEQRNAKEAGGNYTPALTEQEVYAQVARLFKNQEDLLSEFGQFLPDANSSVLLSKTTAEKVDSVRNDHGGTVKKPQLNNKPQRPSQNGCQIRRHSGTGATPPVKKKPKLMSLKESSMADASKHGVGTESLFFDKVRKALRSAEAYENFLRCLVIFNQEVISRAELVQLVSPFLGKFPELFNWFKNFLGYKESVHLESFPKERATEGIAMEIDYASCKRLGSSYRALPKSYQQPKCTGRTPLCKEVLNDTWVSFPSWSEDSTFVSSKKTQYEEHIYRCEDERFELDVVLETNLATIRVLEAIQKKLSRLSAEEQAKFRLDNTLGGTSEVIHRKALQRIYADKAADIIDGLRKNPSIAVPIVLKRLKMKEEEWREAQRGFNKVWREQNEKYYLKSLDHQGINFKQNDTKVLRSKSLLNEIESIYDERQEQATEENAGVPVGPHLSLAYEDKQILEDAAALIIHHVKRQTGIQKEDKYKIKQIMHHFIPDLLFAQRGDLSDVEEEEEEEMDVDEATGAPKKHNGVGGSPPKSKLLFSNTAAQKLRGMDEVYNLFYVNNNWYIFMRLHQILCLRLLRICSQAERQIEEENREREWEREVLGIKRDKSDSPAIQLRLKEPMDVDVEDYYPAFLDMVRSLLDGNIDSSQYEDSLREMFTIHAYIAFTMDKLIQSIVRQLQHIVSDEVCVQVTDLYLAENNNGATGGQLNSQTSRSLLESAYQRKAEQLMSDENCFKLMFIQSQGQVQLTVELLDTEEENSDDPVEAERWSDYVERYMSSDTTSPELREHLAQKPVFLPRNLRRIRKCQRGREQQEKEGKEGNSKKTMENVESLDKLECRFKLNSYKMVYVIKSEDYMYRRTALLRAHQSHERVSKRLHQRFQAWVDKWTKEHVPREMAAETSKWLMGEGLEGLVPCTTTCDTETLHFVSINKYRVKYGTVFKAP
